Reference: publication PMC8488576

Chains of the proteins cited; added tags and fusions are not shown. Lines headed by an entry give the natural chain unless they say otherwise; changes in a name come on top.
UniProt Q2YLT8: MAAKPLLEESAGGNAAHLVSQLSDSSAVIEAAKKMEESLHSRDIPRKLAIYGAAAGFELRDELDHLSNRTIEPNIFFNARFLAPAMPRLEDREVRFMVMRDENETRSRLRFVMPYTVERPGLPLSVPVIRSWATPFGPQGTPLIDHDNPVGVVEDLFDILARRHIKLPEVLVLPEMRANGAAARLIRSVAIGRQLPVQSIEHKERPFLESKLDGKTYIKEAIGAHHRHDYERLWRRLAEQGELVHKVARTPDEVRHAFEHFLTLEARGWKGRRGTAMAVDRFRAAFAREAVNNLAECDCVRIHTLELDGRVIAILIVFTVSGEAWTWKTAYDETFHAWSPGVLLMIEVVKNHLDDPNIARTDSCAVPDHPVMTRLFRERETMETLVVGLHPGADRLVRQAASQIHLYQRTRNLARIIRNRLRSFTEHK

Molecular target: Gal4 BD fusion with BspF (Brucella abortus) (UniProt Q2YLT8)
Assay: two-hybrid

B1: ACAP1 C-terminal fragment (residues 460-740), two-hybrid library clone (domain or fragment, UniProt Q15027 460-740)
chain: LTLDSWEPELVKLMCELGNVIINQIYEARVEAMAVKKPGPSCSRQEKEAWIHAKYVEKKFLTKLPEIRGRRGGRGRPRGQPPVPPKPSIRPRPGSLRSKPEPPSEDLGSLHPGALLFRASGHPPSLPTMADALAHGADVNWVNGGQDNATPLIQATAANSLLACEFLLQNGANVNQADSAGRGPLHHATILGHTGLACLFLKRGADLGARDSEGRDPLTIAMETANADIVTLLRLAKMREAEAAQGQAGDETYLDIFRDFSLMASDDPEKLSRRSHDLHTL
**Q.** B1 was tested. Which binding did it give?
**A.** binds

These are yes or no findings as the source states them, for the method shown. A result given as binding can be weak or reduced; the word gives no strength.
